Test results published in PubChem BioAssay AID493014 (National Center for Advancing Translational Sciences (NCATS), 2011).
In all, about 340,000 compounds went through this assay and about 170 (0.05%) were called active. This list was built around the results that the source calls inconclusive (neither active nor inactive); the mix of calls is not that of the screen. The call rests on the fitted dose curve; in most records, active means well fitted inhibition curve with a large enough effect in the signal ratio, with a control signal flat (not every such curve was filed as active); inconclusive means small, poorly fitted or top-dose-only effect, or effect the other way, or a change in a side signal; inactive means flat fitted curve, though single readings scatter; the % refers to the signal ratio. A potency beside an inconclusive call is a rough fit, not a confirmed value.

Assay: qHTS Assay to Find Inhibitors of Chronic Active B-Cell Receptor Signaling;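 on activity change, negative = inhibition: plate controls were basal doxycycline-induced cells for no effect and cells given 10 µM MG132 for full effect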
Details: ABC-DLBCL IkBa-CBG/CBR reporter, luminescence ratio (green luciferase fused to IkBa over red control in TMD8 lymphoma cells), 4 h; activity change, negative = inhibition: at 46.1 µM (top of the series)
How it was run: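 Compounds up to 46 uM were incubated four hours with TMD8 cells whose green CBG68 luciferase is fused to IkappaBalpha; red CBR luminescence normalised the signal, and concentration-effect curves were fitted to fusion, red and ratio data.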
Potency means the concentration at half of the fitted maximal effect.

| SMILES | Potency | activity change, negative = inhibition |
| --- | --- | --- |
| O=C1C=C(c2ccc(O)cc2)C[C@@H](c2ccc3c(c2)OCO3)C1 | inconclusive: 20.6 µM [falling, single point] | – |
| CC1CCN(C(=O)COC(=O)c2c[nH]c3ccccc23)CC1 | inconclusive: 23.1 µM [falling, partial curve, poor fit] | – |
| COc1cc(C2C(N3C(=O)c4ccccc4C3=O)C(=O)N2c2cccc(C)c2)cc(OC)c1OC (stereo unspecified) | inconclusive: 6.51 µM [falling, partial curve, poor fit] | – |
| CC1=NN(C(N)=S)C(=O)C1N=Nc1ccccc1 (stereo unspecified) | – | inconclusive: 250% [cytotoxic] |
| COc1ccc(-c2nnn(CC#N)n2)cc1OC | – | inconclusive: -8.74% |
| CCN1CCN(S(=O)(=O)c2ccc(Cl)c(C(=O)NCc3nc4ccccc4[nH]3)c2)CC1 | – | inactive: 0.856% |
| COc1ccccc1C(=O)NNC1=C(C(=O)C(F)(F)F)CCC1 | inconclusive: 7.94 µM [falling, partial curve] | – |
| CC1CN(C(=O)C(c2ccccc2)c2ccccc2)CC(C)O1 (stereo unspecified) | – | inconclusive: -6.43% |
| O/C(=C\c1ccc2ccccc2n1)c1ccc(O)cc1O | inconclusive: 14.1 µM [falling, single point] | – |
| CCCOc1ccc(C(=O)NNC(=S)NC(=O)c2ccccc2[N+](=O)[O-])cc1 | – | inconclusive: 2.24% |
| CCN(CC)c1ccc(C2=NNC(=O)CC2C)cc1[N+](=O)[O-] (stereo unspecified) | – | inconclusive: 3.15% |
| Cc1cc(C)c2c(N)c(C(=O)Nc3ccccc3F)sc2n1 | – | inconclusive: -12.6% |
| Cc1ccc(SCc2ccc(C(=O)N3CCCC3)cc2)cc1 | – | inconclusive: -11% |
| O=C(CCN1CCN(C(=O)c2ccccc2)CC1)c1ccc(Br)cc1 | – | inconclusive: -28% |
| O=C(c1cc2ccccc2o1)N1CCN(c2ccccc2Cl)CC1 | – | inconclusive: 1.45% |
| CN1CCN(CCCCOc2ccccc2-c2ccccc2)CC1 | – | inconclusive: -9.66% |
| COc1ccc(Nc2nc(-c3sc(C)nc3C)cs2)c(OC)c1 | inconclusive: 22.4 µM [falling, partial curve] | – |
| O=C(CSc1ncccn1)NC1CCS(=O)(=O)C1 (stereo unspecified) | – | inactive: 0.818% |
| CC1=NN(c2ccc(C(=O)O)cc2)C(=O)CC1 | inconclusive: 5.62 µM [falling, partial curve] | – |
| O=C(Nc1ccccc1)C1=C[C@@H](c2ccc(C(F)(F)F)cc2)C[C@@H](OCc2ccc(CO)cc2)O1 | – | inconclusive: 17.7% |
| NS(=O)(=O)c1ccc(NC(=O)COC(=O)C2(c3ccccc3F)CCCC2)cc1 | – | inactive: 1.47% |

Already shown: 2 of the compounds above.

| SMILES | Potency | activity change, negative = inhibition |
| --- | --- | --- |
| O=C1C=C(c2ccc(O)cc2)C[C@@H](c2ccc3c(c2)OCO3)C1 | inconclusive: 20.6 µM [falling, single point] | – |
| CC1CCN(C(=O)COC(=O)c2c[nH]c3ccccc23)CC1 | inconclusive: 23.1 µM [falling, partial curve, poor fit] | – |

The results go on:

| SMILES | Potency | activity change, negative = inhibition |
| --- | --- | --- |
| C=CCC[C@@H](Cc1ccc(F)cc1)C(=O)OCCNC(=O)[C@@H](CC=C)CC(=O)N(CCO)Cc1ccccc1 | – | inconclusive: -7.96% |
| COc1cccc2sc(NNC(=O)C3=COCCO3)nc12 | inconclusive: 35.5 µM [falling, single point] | – |
| CCC(C(=O)OCC(=O)NC(=O)c1ccccc1)c1ccccc1 (stereo unspecified) | – | inconclusive: 11.1% |
| COc1ccc(OC)c(C2SCCN2S(=O)(=O)c2cccc(C(F)(F)F)c2)c1 (stereo unspecified) | – | inactive: 0.67% |
| O=C(O)c1cc2c(s1)-c1ccccc1CC2 | – | inconclusive: 0.0313% |
| COCCCNC(=O)CC1C[C@H](C(=O)N2CCOCC2)[C@@]2(CCC3CCCC3)c3[nH]c4ccc(OC)cc4c3CCN2C1=O (stereo partly specified) | – | inconclusive: -4.58% |
| Clc1cccc(Cl)c1/C=N\Nc1nccs1 | – | inconclusive: -10.5% |
| COc1ccc(Cl)cc1NC(=O)CN(C)C(=O)Cc1ccc2c(c1)CCC2 | – | inconclusive: 1.69% |
| CN1CCC(CNC(=O)Nc2csc3ccccc23)CC1 | – | inactive: 2.48% |
| CCCc1cc(C(=O)N2CCCC(Cc3ccccc3C)(C(=O)OCC)C2)no1 (stereo unspecified) | – | inactive: -3.06% |
| COc1ccc(/C=C/C(=O)CC(O)(c2ccccc2)C(F)(F)F)cc1 (stereo unspecified) | inconclusive: 32.6 µM [falling, single point] | – |
| COC(=O)CN(C#N)c1nc(NCc2ccccc2)nc(OC)n1 | – | inactive: -4.5% |
| O=[N+]([O-])c1ccc(O)c(C2=NNC(c3ccccc3F)C2)c1 (stereo unspecified) | – | inconclusive: -19.8% |
| COc1ccc2[nH]c3c(c2c1)CCNC3c1ccc([N+](=O)[O-])o1 (stereo unspecified) | – | inactive: 9.56% |
| C/C=C1\C(OC2OC(CO)C(O)C(O)C2O)OC=C(C(=O)OC)C1CC(=O)OCC1C(C)C(OC(=O)CC2C(C(=O)OC)=COC(OC3OC(CO)C(O)C(O)C3O)/C2=C\C)CC1C(CO)CO (stereo unspecified) | – | inconclusive: 16% |
| CC1CN(C(=O)c2cccc(S(=O)(=O)N3CCOCC3)c2)CC(C)O1 (stereo unspecified) | – | inconclusive: 1.1% |
| O=C(CN1CCN(S(=O)(=O)c2ccccc2)CC1)Nc1ccccc1Cl | – | inconclusive: 3.27% |
| COCCNC(=O)/C(C#N)=C/c1c(N2CCN(c3ccc(OC)cc3)CC2)nc2c(C)cccn2c1=O | – | inactive: -3.6% |
| Cc1nc2ccccc2n1CCC(=O)O | – | inconclusive: -29.5% |
| Cc1cc(C(=O)N/N=C/c2ccc3ccccc3c2)n[nH]1 | inconclusive: 2.82 µM [falling, full curve, poor fit] | – |
